Consider 61 molecules from PubChem BioAssay AID445 (National Center for Advancing Translational Sciences (NCATS), 2006).

The structures appear in SMILES notation. The list shows a part of the results. Further columns of the screen follow, without active or inactive calls. Compounds called inactive in the main read-out are mostly missing here. The note in brackets gives the kind of curve behind each potency; many fits are weak.

This test in a line: IkB Signaling. The note with it: ABC-DLBCL IkBa-CBG/CBR dual luciferase ratio (green luciferase fused to IkBa over red control in OCI-Ly3 lymphoma cells), 4 h. In outline:
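Curves were fitted separately to fusion (green), unfused (red) and ratio luminescence, then classed by r2, magnitude and activity. Cells: OCI-Ly3, 4 h compound plus doxycycline at 37C; 10 uM MG-132 defined full response.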

Setting [1] is: measured here: control luc red channel unless noted.
The mark [2] stands for this setting: measured here: IkB-luc green channel.
Where [3] appears, read: measured here: control luc red channel.

Turning to `O=c1c2ccccc2n(Cc2ccccc2Cl)c(=O)n1CCc1ccccc1`, under setting [1], the AC50 is 0.794 µM [falling, partial curve, poor fit].

As to `CCCCCOc1ccc(Cn2c(=O)oc3ccccc32)cc1`, the AC50 under setting [1] was 3.16 µM [falling, full curve, poor fit].

As to `CC(C)(C)OC(=O)N1CCC(c2c(C(=O)NC3CCN(Cc4ccccc4)CC3)cnn2-c2ccc(F)cc2F)CC1`, the AC50 under setting [1] is 12.6 µM [falling, partial curve]. On to `Cc1ccc(NC(=O)C2CCCN(S(=O)(=O)c3ccc4c(c3)oc(=O)n4C)C2)cc1Cl` (stereo not drawn), for which the AC50 under setting [1] was 5.01 µM [falling, partial curve]. Consider `Cc1ccc(-c2noc(CCC(=O)N3CCCc4ccccc43)n2)cc1`, for which the AC50 under setting [1] is 12.6 µM [falling, partial curve]. For `COc1ccc(NC(=O)c2c(NCc3sccc3C)sc3c2CCCC3)c(OC)c1`, the AC50 under setting [1] is 20 µM [falling, partial curve]. `CCCOc1ccc(CN(C(=O)Cc2coc3ccc(CC)cc23)C2CCS(=O)(=O)C2)cc1` (stereo not drawn): under setting [1], the AC50 is 31.6 µM [falling, single point]. Same read-out and setting: for `O=S(=O)(Nc1nnc(-c2ccccc2)s1)c1ccc(Cl)cc1` the value was 7.94 µM [falling, partial curve]; for `Cc1ccc(NC(=O)CN2CCN(S(=O)(=O)c3ccc(C(C)C)cc3)CC2)cc1F`, 5.01 µM [falling, partial curve]. With `CCC1=Nc2cc(C(=O)NC3CCC(C)CC3)ccc2Sc2ccc(C)cc21` (stereo not drawn), the AC50 reads like this: under setting [2], 1.58 µM [rising, full curve]; under setting [3], 0.794 µM [rising, full curve, poor fit].

`CCC1CN(C(=O)N2CCC(C(=O)NCc3cccc(OC)c3OC)CC2)c2cc(C)ccc2O1` (stereo not drawn): the AC50 under setting [1] is 3.16 µM [falling, partial curve]. Still for that read-out and setting: the figure for `CC(C)c1ccc(NC(=O)c2ccc(F)c(S(=O)(=O)N3CCc4ccccc43)c2)cc1` is 15.8 µM [falling, partial curve]; for `O=C(CSc1ncnc2ccccc12)Nc1ccc2c(c1)OCO2` it is 12.6 µM [falling, partial curve]; for `COc1ccccc1NC(=O)c1sc2nc(C)c(C(=O)Nc3ccc(C)cc3C)c(-c3ccco3)c2c1N` it is 3.16 µM [falling, full curve]. Still for that read-out and setting: for `O=C(C1CCCN(S(=O)(=O)c2cccc3nsnc23)C1)N1CCN(c2ccccc2F)CC1` (stereo not drawn) the value was 25.1 µM [falling, partial curve]; for `CCC(C)NC(=O)CSc1nc2n[nH]c(C)c2c(=N)n1-c1cc(Cl)ccc1C` (stereo not drawn), 39.8 µM [falling, single point].

Take `COc1ccccc1CNC(=O)c1cc2sccc2n1Cc1ccc(Cl)cc1`: the AC50 under setting [1] was 20 µM [falling, single point].

`COc1ccc(NC(=O)CSc2ccc3nc(-c4ccccc4)cn3n2)c(OC)c1`: the AC50 under setting [1] was 31.6 µM [falling, partial curve]. The same measure, in the same setting: the figure for `Cc1ccccc1NC(=O)CSc1nc2ccc(NC(=O)c3cccs3)cc2s1` is 12.6 µM [falling, partial curve]. The same measure, in the same setting: the figure for `CSc1cccc(NC(=O)c2cccc(N3CCCS3(=O)=O)c2)c1` is 39.8 µM [falling, single point].

In the case of `CCOc1ccc(S(=O)(=O)Nc2cccc(-c3ccc(OCC)nn3)c2)cc1`, under setting [1], the AC50 was 31.6 µM [falling, single point]. Turning to `Cc1cccc(NC(=O)COC(=O)CCCC2=NS(=O)(=O)c3ccccc3N2)c1`, the AC50 under setting [1] is 0.316 µM [falling, full curve, poor fit]. As to `Cc1nc2c(C(=O)N3CCN(c4ccccn4)CC3)cnn2c(C)c1Cc1cccc(Cl)c1`, the AC50 under setting [1] was 12.6 µM [falling, partial curve]. Turning to `C=CCn1c(SCC(=O)Nc2cc(C)c(Cl)cc2OC)nnc1-c1ccco1`, under setting [1], the AC50 is 12.6 µM [falling, partial curve].

On to `COc1ccccc1N1CCN(C(=O)C2CCN(S(=O)(=O)Cc3ccccc3)CC2)CC1`, for which the AC50 under setting [1] is 3.16 µM [rising, partial curve].

Turning to `COc1ccc(CCNC(=O)CCCn2c(=O)c3cccn3c3ccccc32)cc1OC`, the AC50 under setting [1] was 20 µM [falling, partial curve]. Still for that read-out and setting: the figure for `CCCc1[nH]nc2c1C(/C(C)=C/c1ccccc1)C(C#N)=C(N)O2` (stereo not drawn) is 15.8 µM [falling, partial curve]; for `O=C(CSc1n[nH]c(-c2ccco2)n1)Nc1sc2c(c1C(=O)Nc1ccccc1)CCCC2` it is 3.16 µM [falling, full curve]; for `O=C(OCc1nnc(-c2ccccc2)o1)c1cc(S(=O)(=O)N2CCOCC2)c(Cl)cc1Cl` it is 31.6 µM [falling, single point]. Regarding `CC1CN(c2nc3c(c(=O)n(Cc4ccc(Cl)cc4)c(=O)n3C)n2C)CC(C)O1` (stereo not drawn), the AC50 under setting [1] is 20 µM [falling, single point]. Still for that read-out and setting: for `CCc1ccc(CNC(=O)CCCN2C(=O)CCn3nc(-c4cccn4C)cc32)cc1` the value was 12.6 µM [falling, partial curve]; for `CC(C)CCN(Cc1ccco1)C(=O)c1cc2c(s1)-c1ccccc1OC2`, 25.1 µM [falling, single point]; for `COc1cc(-c2nnc(SCCOc3ccc(Cl)cc3)o2)cc(OC)c1OC`, 5.01 µM [rising, full curve, poor fit]. The same measure, in the same setting: for `COc1ccccc1N1CCN(C(=O)c2cn(CC(C)C)c(=O)c3c2c2ccccc2n3C)CC1` the value was 12.6 µM [falling, partial curve].

Take `NC(=O)C1(N2CCCCC2)CCN(CC(=O)Nc2ccccc2-c2ccccc2)CC1`: the AC50 under setting [1] was 15.8 µM [falling, partial curve]. Turning to `CCCOc1ccc(NC(=O)CC2C(=O)N(c3cccc(OC)c3)C(=O)N2Cc2cccs2)cc1` (stereo not drawn), under setting [1], the AC50 was 7.94 µM [falling, partial curve].

Turning to `Cc1nc2ccn(Cc3ccccc3)c(=O)c2cc1C(=O)N1CCN(c2ccccc2F)CC1`, the AC50 under setting [1] was 12.6 µM [falling, partial curve]. With `Cc1cc(F)ccc1S(=O)(=O)Nc1ccc2oc3c(c2c1)CC(C)CC3` (stereo not drawn), the AC50 under setting [1] was 31.6 µM [falling, partial curve]. As for `COc1cc(OC)cc(-c2cc3nc(C)c(CCC(=O)NCc4ccccc4)c(C)n3n2)c1`, the AC50 under setting [1] is 2.51 µM [falling, full curve].

`CCOc1ccccc1C(=O)NC1(C(F)(F)F)NC(=O)N(CCc2ccc(OC)c(OC)c2)C1=O` (stereo not drawn): the AC50 under setting [1] is 2.51 µM [rising, partial curve]. On the same count and under the same terms, the figure for `CCc1nc2sc3c(c2c(=O)n1N)CCC3` is 7.94 µM [rising, partial curve]; for `Cc1cc(C)c(S(=O)(=O)Nc2cccc(C(F)(F)F)c2)c(C)c1` it is 39.8 µM [falling, partial curve]; for `CCOC(=O)c1c(-c2ccc(C)o2)csc1NC(=O)CSc1nncs1` it is 20 µM [falling, single point]. Take `CCOc1ccccc1CNC(=O)C1CCN(S(=O)(=O)c2ccc3[nH]c(=O)ccc3c2)CC1`: the AC50 under setting [1] was 25.1 µM [falling, partial curve]. On to `CCN(CC(=O)Nc1c(C(=O)OC)[nH]c2ccc(C)cc12)c1ccc2c(c1)OCO2`, for which, under setting [1], the AC50 was 12.6 µM [falling, partial curve].

For `COc1ccc(C2C(C#N)=C(N)N3C(=C2C#N)Sc2ccccc23)cc1` (stereo not drawn), the AC50 under setting [1] was 12.6 µM [falling, partial curve]. With `Clc1ccc(OCc2nn3c(C4CCCCC4)nnc3s2)cc1`, the AC50 under setting [1] was 25.1 µM [falling, partial curve].

Turning to `CCOC(=O)c1c(C)oc2ncnc(Nc3ccc(OC)cc3OC)c12`, under setting [1], the AC50 is 0.126 µM [rising, full curve, poor fit].

Consider `COc1ccccc1NC(=O)CSC1=Nc2ccccc2C2=NC(CCC(=O)NCCc3ccccc3)C(=O)N12` (stereo not drawn), for which the AC50 under setting [1] was 39.8 µM [falling, single point]. Turning to `O=C(Nc1nc2c(s1)CCCCCC2)Nc1ccc(F)cc1F`, the AC50 under setting [1] is 10 µM [falling, partial curve]. On the same count and under the same terms, the figure for `Cc1ccc(C(=O)N2CCc3cc(CNS(=O)(=O)c4cccs4)ccc32)cc1` is 6.31 µM [falling, partial curve]; for `O=C(COc1c(F)c(F)c(C(F)(F)F)c(F)c1F)Nc1ccc(N2CCOCC2)c(Cl)c1` it is 10 µM [falling, partial curve]. As to `CCCCn1c(SCC(=O)Nc2cc(NC(=O)c3ccco3)ccc2C)nc2ccccc2c1=O`, the AC50 is 7.94 µM [falling, full curve, poor fit] under setting [2] and 7.94 µM [falling, full curve] under setting [3]. For the molecule `O=C(Nc1ccc(Oc2ccccc2)cc1)C1CCN(S(=O)(=O)c2ccc(Cl)cc2)CC1`, the AC50 under setting [1] was 31.6 µM [falling, partial curve].

`CCOC(=O)c1cc(S(=O)(=O)NCc2ccc(C)cc2)[nH]n1`: under setting [1], the AC50 was 0.794 µM [falling, partial curve]. With `O=S(=O)(c1ccc(Cl)cc1)c1nc(-c2ccco2)oc1SCc1ccc(F)cc1`, under setting [1], the AC50 is 0.316 µM [falling, partial curve, poor fit]. Consider `N#CC1=C2SCN(c3ccccc3)CN2C(=O)CC1c1c(Cl)cccc1Cl` (stereo not drawn), for which the AC50 under setting [1] was 31.6 µM [rising, partial curve] [measured here: IkB-luc green channel]. Same read-out and setting: for `COc1ccc(-n2c(=O)c3ccccc3n(CC(=O)Nc3ccccc3OC)c2=O)cc1` the value was 20 µM [falling, single point]; for `Cc1ccc2c(CC(=O)Nc3c(C(=O)c4ccc(C)c(F)c4)oc4ccccc34)coc2c1`, 6.31 µM [rising, partial curve]; for `CCOc1ccc(NC(=O)c2cnc3ccccn3c2=O)cc1`, 39.8 µM [rising, single point]. For `CC(=O)c1ccc(NC(=O)c2cnn(-c3cccc(F)c3)c2-n2cccc2)cc1`, the AC50 under setting [1] is 39.8 µM [falling, partial curve].
